# No constants are given. Whether binding was seen depends on the method and setting. In cells and extracts the contact can be indirect. Some entries that bind do so weakly or less than the wild type. For some of these results: Tags and fused reporters may be left off the sequences shown.
# The chains behind the UniProt entries cited, without tags or fusion partners.
# UniProt P03165: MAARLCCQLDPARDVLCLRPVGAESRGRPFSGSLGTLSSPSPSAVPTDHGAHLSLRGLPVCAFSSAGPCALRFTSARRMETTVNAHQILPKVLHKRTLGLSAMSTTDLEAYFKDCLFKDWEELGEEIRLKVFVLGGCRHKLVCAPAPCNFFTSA
# UniProt Q13547: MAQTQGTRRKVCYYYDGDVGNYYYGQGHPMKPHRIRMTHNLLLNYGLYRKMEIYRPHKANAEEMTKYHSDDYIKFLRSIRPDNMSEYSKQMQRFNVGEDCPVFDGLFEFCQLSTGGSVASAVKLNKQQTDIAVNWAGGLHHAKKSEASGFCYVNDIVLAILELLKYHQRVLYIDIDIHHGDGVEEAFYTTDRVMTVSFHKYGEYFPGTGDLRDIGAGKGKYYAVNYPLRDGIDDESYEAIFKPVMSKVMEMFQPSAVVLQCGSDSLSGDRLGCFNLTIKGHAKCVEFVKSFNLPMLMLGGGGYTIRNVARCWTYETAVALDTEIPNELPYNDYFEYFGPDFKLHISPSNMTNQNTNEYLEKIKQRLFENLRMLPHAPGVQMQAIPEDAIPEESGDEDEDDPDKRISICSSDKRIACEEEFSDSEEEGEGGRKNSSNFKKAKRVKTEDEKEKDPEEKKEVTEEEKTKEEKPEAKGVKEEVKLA
# UniProt Q00987: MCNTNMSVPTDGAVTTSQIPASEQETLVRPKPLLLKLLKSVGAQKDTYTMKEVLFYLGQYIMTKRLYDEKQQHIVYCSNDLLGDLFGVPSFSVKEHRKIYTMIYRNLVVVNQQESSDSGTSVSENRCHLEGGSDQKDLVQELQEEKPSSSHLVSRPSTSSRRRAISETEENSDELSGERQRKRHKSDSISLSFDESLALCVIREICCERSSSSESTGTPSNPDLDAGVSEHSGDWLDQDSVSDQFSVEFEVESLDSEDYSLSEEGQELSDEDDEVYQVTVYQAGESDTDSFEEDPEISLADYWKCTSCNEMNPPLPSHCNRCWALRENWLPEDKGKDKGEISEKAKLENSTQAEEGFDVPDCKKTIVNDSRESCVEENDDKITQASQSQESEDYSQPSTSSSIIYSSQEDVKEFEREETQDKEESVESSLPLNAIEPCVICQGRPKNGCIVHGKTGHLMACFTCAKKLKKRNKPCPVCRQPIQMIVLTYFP
# Tests used:
# HBx (hepatitis B virus) = HBx (hepatitis B virus) (UniProt P03165); test: co-IP
# GST-tagged GYS2 (human) = molecular target: T1, GST-tagged GYS2 (human) (UniProt P54840); test: pull-down
# T1 sequence: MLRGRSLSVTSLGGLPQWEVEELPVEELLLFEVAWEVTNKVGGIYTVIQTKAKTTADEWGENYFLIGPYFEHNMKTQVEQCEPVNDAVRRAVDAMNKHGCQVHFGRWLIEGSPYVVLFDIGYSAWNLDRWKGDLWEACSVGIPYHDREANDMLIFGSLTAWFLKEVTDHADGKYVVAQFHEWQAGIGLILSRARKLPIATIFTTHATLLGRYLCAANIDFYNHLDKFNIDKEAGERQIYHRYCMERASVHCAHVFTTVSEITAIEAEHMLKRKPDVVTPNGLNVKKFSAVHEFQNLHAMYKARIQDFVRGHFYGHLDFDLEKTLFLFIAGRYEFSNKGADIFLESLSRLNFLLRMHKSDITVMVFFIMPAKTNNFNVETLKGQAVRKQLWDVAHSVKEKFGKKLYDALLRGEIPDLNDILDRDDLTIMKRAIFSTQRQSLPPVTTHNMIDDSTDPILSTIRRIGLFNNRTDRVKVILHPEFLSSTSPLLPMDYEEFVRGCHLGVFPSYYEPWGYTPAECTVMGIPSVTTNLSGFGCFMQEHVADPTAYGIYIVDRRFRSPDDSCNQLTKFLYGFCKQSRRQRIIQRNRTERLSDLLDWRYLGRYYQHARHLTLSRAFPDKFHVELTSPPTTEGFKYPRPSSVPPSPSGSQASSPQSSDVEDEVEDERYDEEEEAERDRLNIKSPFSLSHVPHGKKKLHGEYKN
# [1] = molecular target: T2, glycogen synthase 2 (GYS2) (human (endogenous in HepG2 and QGY-7703)) (UniProt P54840); test: co-IP
# T2 sequence: T1 sequence
binding (GST-tagged GYS2 (human)),Substance,further results
,HDAC1 (from UniProt Q13547 1-482) (enzyme),binding (HBx (hepatitis B virus)): binds
binds,His-tagged p53 (from UniProt P04637 1-393),
,MDM2 (from UniProt Q00987 1-491) (enzyme),binding [1]: binds
binds,His-tagged MDM2 (from UniProt Q00987 1-491) (enzyme),

# — doi:10.1101/373761
